Among the data in PMC11238198, “Rejuvenation of Meropenem by Conjugation with Tilapia Piscidin-4 Peptide Targeting NDM-1 Escherichia coli” (ACS Omega, 2024) are MIC values, retold here.

For the assay, the system named is E. coli 8–8. As to the kind of experiment: microbe, parasite or virus in culture. The assay is classed as cell-based. As to conditions: Escherichia coli; Mueller Hinton broth, 50 μL of 1 × 10^6 CFU/mL + 50 μL sample, 37 °C, 16–20 h; three independent replicates, each in triplicate; read-out: minimum inhibitory concentration (MIC) E. coli 8–8. The protocol: E. coli 8–8, A. baumannii 2982, and S. aureus 13–1 were procured from the Bioresource Collection and Research Center (BCRC), Taiwan. NDM-1-positive E. coli BAA 2452 was procured from ATCC. All strains were cultured in Mueller Hinton broth (MHB). The concentration of bacteria was identified by the absorbance at OD600. The colony forming units (CFU) corresponding to different OD600 values were identified by plating on the Mueller Hinton agar (MHA) plate.
Antibacterial analysis was performed according to a standard protocol.[32] Overnight cultures of test bacteria were prepared and freshly subcultured. Briefly, 50 μL of 1 × 10^6 CFU/mL bacterial cells was treated with 50 μL of peptide or conjugate at different concentrations in a 96-well plate. The plates were incubated at 37 °C for 16–20 h. The lowest concentration of peptide/conjugate showing no growth was considered the minimum inhibitory concentration (MIC). To identify the MIC (MBC), 5 μL of incubated suspensions from growth-free wells was plated onto MHA and incubated overnight at 37 °C. The lowest concentration of peptide/conjugate showing no growth on the MHA plate was considered to be the MBC. The experiments were performed in three independent replicates, each in triplicate.

The structures appear in SMILES notation. Bounds are passed on as bounds.

Take `C[C@@H](O)[C@H]1C(=O)N2C(C(=O)O)=C(S[C@@H]3CN[C@H](C(=O)N(C)C)C3)[C@H](C)[C@H]12` [Meropenem]: the MIC is less than 0.25 µM.
